Results from paper PMC7819943, “Rice protein-binding microarrays: a tool to detect cis-acting elements near promoter regions in rice”.
The other results are listed elsewhere or left out.

Chains of the proteins cited; added tags and fusions are not shown.
UniProt Q0JBA9, entry or part of it: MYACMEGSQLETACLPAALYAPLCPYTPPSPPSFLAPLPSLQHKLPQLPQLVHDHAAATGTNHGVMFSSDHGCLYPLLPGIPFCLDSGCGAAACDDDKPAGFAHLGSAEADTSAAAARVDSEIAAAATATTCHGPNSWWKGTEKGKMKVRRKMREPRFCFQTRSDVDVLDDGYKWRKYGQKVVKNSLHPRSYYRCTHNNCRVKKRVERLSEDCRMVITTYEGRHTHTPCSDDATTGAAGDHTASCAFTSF

Molecular target: OsWRKY34 (Oryza sativa, UniProt Q0JBA9 1-250)
Assay: protein-binding microarray (RPBM); PBS, 2% BSA, 51.3 ng/ul salmon testes DNA, 50 uM zinc acetate, 200 nM TF, 25 C, 1 h; high values mean tight binding
Conditions: protein: recombinant; tags: N-terminal polyhistidine and DsRed monomer fusion (pET32a); label: CyDye5-dUTP incorporated in the synthesized complementary strand; 3' TTTTT single-stranded linker to array surface; dsDNA, one strand shown
Procedure, shortened: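 Transcription factors, each fused N-terminally to a polyhistidine tag and DsRed, were expressed in E. coli BL21-CodonPlus and purified on Ni–NTA. A custom Agilent array was made double-stranded by primer extension with Cy5-dUTP and blocked with 2% BSA. It was incubated with 200 nM protein in PBS, 2% BSA, salmon testes DNA and 50 µM zinc acetate at 25 °C for 1 h, then washed. The binding signal is per-feature fluorescence intensity (arbitrary units) read on an Axon 4000B scanner.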

Point of comparison: “TTTATTTAGTTGTTTCAGCTCACTCTTTTAACTAACCTTCCGGAGTCACCTAGTGCAG”, binding signal 9520 fluorescence intensity (a.u.). Against it:
- AGGTATAATGGTTTGTGTTCTGCTTGTTATGTGTGGGGTGCGGAGTCACCTAGTGCAG — lower, 9500 fluorescence intensity (a.u.)
- AGCTGACATGTGTTCCCCATGTGTTTTTTTAATTTTTTTTCGGAGTCACCTAGTGCAG — lower, 8560 fluorescence intensity (a.u.)
- CCCATCCATTCTCGCCGAGCCACCCATTCCGCCACCTCCACGGAGTCACCTAGTGCAG — higher, 10500 fluorescence intensity (a.u.)
- AGCCTTTGTCGCAATGCATCCTCTAGCTTAATTTACTTATCGGAGTCACCTAGTGCAG — higher, 9780 fluorescence intensity (a.u.)
- TTACAGTTAATCTGTAACATTTTTTTTTGCGGGGAAGTTACGGAGTCACCTAGTGCAG — lower, 9450 fluorescence intensity (a.u.)
- TCGTGTGTGCGCAACTGTTTATATGCACGTGTAGCTGCTTCGGAGTCACCTAGTGCAG — lower, 8030 fluorescence intensity (a.u.)
- ATCTCCCCTGCCGTCCTCACTGCTCCTGCGCTTGTGACTTCGGAGTCACCTAGTGCAG — lower, 9130 fluorescence intensity (a.u.)
- CTTCTGCTGTCTGTGTACATGGGCCGCCTTCTATCTACGACGGAGTCACCTAGTGCAG — lower, 8360 fluorescence intensity (a.u.)
- TCCGCCCGGGCCTCGCCGTCAAGCTCATCTCCACCCCGCGCGGAGTCACCTAGTGCAG — lower, 8050 fluorescence intensity (a.u.)
- CCTTTAATTGTTTTCTGAATTTCATACTATAAGGCATATTCGGAGTCACCTAGTGCAG — lower, 8230 fluorescence intensity (a.u.)
- TTATATTTAAGTGGGGTCATTTCTCTAATTTTTTTGAATTCGGAGTCACCTAGTGCAG — higher, 10200 fluorescence intensity (a.u.)
- ATATTATAAGTTGTTTTGACTTTTTGCTAGTCAAACTTATCGGAGTCACCTAGTGCAG — higher, 14200 fluorescence intensity (a.u.)
- ATTGTGTGTATTAAATAGTTTTCTATACGAAAGTTGTCTTCGGAGTCACCTAGTGCAG — higher, 9990 fluorescence intensity (a.u.)
- TACATTATCCCGTGTTGTTGGTTATATGCTTGGTTTTATGCGGAGTCACCTAGTGCAG — lower, 9240 fluorescence intensity (a.u.)
- GCTGCAATTTCTTGATTTCTTCCCAACCACAAGCCATTCGCGGAGTCACCTAGTGCAG — lower, 8120 fluorescence intensity (a.u.)
- GTCGCAATTCTTTGATTCCCTTCGCGGAATTTTTCTTTCTCGGAGTCACCTAGTGCAG — lower, 9090 fluorescence intensity (a.u.)
- ATCGGGCTTAGCGTCTCCACTCGTGTTCGTGTTGGTTCCTCGGAGTCACCTAGTGCAG — lower, 8360 fluorescence intensity (a.u.)
- TGTTGTTTCTCTCTCTGTCTCGCTGTCTGTTGCCACCATTCGGAGTCACCTAGTGCAG — higher, 12300 fluorescence intensity (a.u.)
- GATTGGTCTCATTTGTGTTCGCGAAAAAATTTTCCATGGACGGAGTCACCTAGTGCAG — higher, 10800 fluorescence intensity (a.u.)
- ATGCTTGTGCAGTTGTGTTATTTGTTGCTCCAAACCACTACGGAGTCACCTAGTGCAG — higher, 9730 fluorescence intensity (a.u.)
- ACAGGGCGGGGTGCGGTTAGATCCATGGAGATATGGAGATCGGAGTCACCTAGTGCAG — higher, 11100 fluorescence intensity (a.u.)
- GATATGTGGGTCAGGATGGTATATATCAAATTTTGCAAAACGGAGTCACCTAGTGCAG — lower, 8860 fluorescence intensity (a.u.)
- TCCGCCGCGGGGCCCACGGAGCAGTGGGTGGGTGGGGCCCCGGAGTCACCTAGTGCAG — higher, 9770 fluorescence intensity (a.u.)
- CCACCTCGATCGTCAAATCCTCTAGCTTGTCTTTTGTTTTCGGAGTCACCTAGTGCAG — higher, 12400 fluorescence intensity (a.u.)
- TCCTATGTTCTTTTTTCCTATTTATGTGTTTTCCATTCCTCGGAGTCACCTAGTGCAG — higher, 10600 fluorescence intensity (a.u.)
- ATTCCTTGCTTCCACAGCCACCAAAAGTAAAACCACCCGGCGGAGTCACCTAGTGCAG — lower, 8240 fluorescence intensity (a.u.)
- ACTTCTATTTTCGTCTACACCACAGTCGCCGCCGCCATTACGGAGTCACCTAGTGCAG — lower, 8560 fluorescence intensity (a.u.)
- CTTGCAGGCTGAAATTTACTGGTAATGGCGTTTCTGGTCCCGGAGTCACCTAGTGCAG — lower, 9130 fluorescence intensity (a.u.)
- ACCACCTCCTACCGTCCCACTCCCACGCCGCGACACACGCCGGAGTCACCTAGTGCAG — higher, 12200 fluorescence intensity (a.u.)
- GGCAGGAGGAGTTTGTGAGTTAGTTTGTTTCATTTTTCGCCGGAGTCACCTAGTGCAG — the same, 9520 fluorescence intensity (a.u.)
- CGGCTAGGGTTTGTTTTTCTTTTCTTTTTTTCCTTTTCTTCGGAGTCACCTAGTGCAG — higher, 14300 fluorescence intensity (a.u.)
- GATGGGAAGAGGACAGCCATGAGTAGATTGCAGATTCAAGCGGAGTCACCTAGTGCAG — lower, 9160 fluorescence intensity (a.u.)
- CGCAGTGCTCGTCTCCTCTCGGTCTCTCTCTTCGTCTCTCCGGAGTCACCTAGTGCAG — higher, 10500 fluorescence intensity (a.u.)
- GATTCTAAACATCCACTCACACCTCATTTTTTTCATTAGCCGGAGTCACCTAGTGCAG — lower, 9350 fluorescence intensity (a.u.)
- GCCTTCACATGTTTTTTTTTAATTCTCTTCTTTCTGACTGCGGAGTCACCTAGTGCAG — lower, 8340 fluorescence intensity (a.u.)
- GTAGTACCTTTCACTTGCCTCTTCTTTACACAGTTCGTTCCGGAGTCACCTAGTGCAG — higher, 11200 fluorescence intensity (a.u.)
- CCGTTTCGTGCAACCGCACCACACGCTAAGTGCGCGGCCGCGGAGTCACCTAGTGCAG — lower, 9090 fluorescence intensity (a.u.)
- AAATTATAACGAGGGGTGAGGGGCTAAGAACCTATTTTCGCGGAGTCACCTAGTGCAG — higher, 9700 fluorescence intensity (a.u.)
- GATACCATTCCGCTTTCACCTGCCGTTGTTGATCAGCCATCGGAGTCACCTAGTGCAG — higher, 10600 fluorescence intensity (a.u.)
- GAGCTACATCTTTCCGTTGATTTGAGAAGTTCAGTTTGAGCGGAGTCACCTAGTGCAG — lower, 8310 fluorescence intensity (a.u.)
- CATCGTTTTAAGGAGTGACCTCGGGTTTTTGCTCATTCATCGGAGTCACCTAGTGCAG — lower, 8970 fluorescence intensity (a.u.)
- AGTACTTTTATAATGGTAATTTGTTTTTTTTAAAAAATATCGGAGTCACCTAGTGCAG — lower, 8700 fluorescence intensity (a.u.)
- GATCCTGTCCATGCAGCTCACTCAGGCTTGTTCTTGTTTACGGAGTCACCTAGTGCAG — lower, 9380 fluorescence intensity (a.u.)
- GTCCTTTTAAACACAAGCAACGGTTGTCATAGGTTCTGATCGGAGTCACCTAGTGCAG — lower, 8610 fluorescence intensity (a.u.)
- GGGGACTTAATCGCACTGCACATGGAATGTTTTCTACTCGCGGAGTCACCTAGTGCAG — lower, 8280 fluorescence intensity (a.u.)
- CATGAACGACTCTCATTTTCTCGTGTGTTTCACGCCTGGCCGGAGTCACCTAGTGCAG — lower, 8400 fluorescence intensity (a.u.)
- ACACGGGACCTTACCACTCTACTATCGAGTACATCTCTGACGGAGTCACCTAGTGCAG — lower, 9280 fluorescence intensity (a.u.)
- CACCATTGACTTTTTAGCACATGTTTGACCGTTCGTCTTACGGAGTCACCTAGTGCAG — higher, 14800 fluorescence intensity (a.u.)
- TTATTCTATTTTTTTCATTCATATGTTTAGATTTATTAATCGGAGTCACCTAGTGCAG — lower, 8280 fluorescence intensity (a.u.)
- CAAAATTGTGCTTGTTGTCTTACATGTAGCTTTAACCAAACGGAGTCACCTAGTGCAG — lower, 8270 fluorescence intensity (a.u.)
- GTGCCCTTATTGTTTCGCCTATGCGTTTAAATTTTAAAACCGGAGTCACCTAGTGCAG — higher, 10800 fluorescence intensity (a.u.)
- TAGCCGCCTCATCTCGCCCATTCGCTTCCCCGTCATAAAGCGGAGTCACCTAGTGCAG — lower, 8480 fluorescence intensity (a.u.)
- GCCCGTGCTCTACTTGCAATACATGATTACTTCTCACGTTCGGAGTCACCTAGTGCAG — higher, 14100 fluorescence intensity (a.u.)
